From paper PMC8698616
These are yes or no findings as the source states them, for the method shown. In cells and extracts the contact can be indirect. Some binding calls cover weakened binding; strength is not graded here.

Legend:
[1] = molecular target: T1, LEA29 (Arabidopsis thaliana (Col-0)), Q9LW12; assay: split reporter; 2in1 ratiometric BiFC (rBiFC, vector pBiFCt-2in1-CC) in N. benthamiana leaves, 4 d after Agrobacterium infiltration with p19; confocal microscopy; relative YFP/RFP fluorescence ratio with cut-off above 80% (n = 15-25); LEA gene at the attR1-R4 site alone as negative control; settings: remark: other sources report otherwise
T1 chain: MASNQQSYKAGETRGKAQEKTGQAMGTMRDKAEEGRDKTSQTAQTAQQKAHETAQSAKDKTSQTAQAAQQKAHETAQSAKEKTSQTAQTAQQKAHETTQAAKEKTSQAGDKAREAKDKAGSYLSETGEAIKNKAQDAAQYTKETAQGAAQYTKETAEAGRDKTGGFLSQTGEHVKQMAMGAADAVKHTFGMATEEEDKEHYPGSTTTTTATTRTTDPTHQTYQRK

[2] = molecular target: T2, LEA7 (Arabidopsis thaliana (Col-0)) (UniProt Q96270); assay: as above
T2 sequence: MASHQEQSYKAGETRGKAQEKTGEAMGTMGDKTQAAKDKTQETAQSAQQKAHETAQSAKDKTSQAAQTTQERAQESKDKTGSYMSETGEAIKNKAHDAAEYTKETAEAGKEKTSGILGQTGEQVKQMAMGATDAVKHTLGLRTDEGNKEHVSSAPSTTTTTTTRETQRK

B1: LEA29, Q9LW12 1-225 (protein)
chain: MASNQQSYKAGETRGKAQEKTGQAMGTMRDKAEEGRDKTSQTAQTAQQKAHETAQSAKDKTSQTAQAAQQKAHETAQSAKEKTSQTAQTAQQKAHETTQAAKEKTSQAGDKAREAKDKAGSYLSETGEAIKNKAQDAAQYTKETAQGAAQYTKETAEAGRDKTGGFLSQTGEHVKQMAMGAADAVKHTFGMATEEEDKEHYPGSTTTTTATTRTTDPTHQTYQRK
How did the binding [1] turn out when B1 was run?
Its binding is “binds”.

B2: LEA29 (protein, UniProt Q9LW12 1-225)
chain: MASNQQSYKAGETRGKAQEKTGQAMGTMRDKAEEGRDKTSQTAQTAQQKAHETAQSAKDKTSQTAQAAQQKAHETAQSAKEKTSQTAQTAQQKAHETTQAAKEKTSQAGDKAREAKDKAGSYLSETGEAIKNKAQDAAQYTKETAQGAAQYTKETAEAGRDKTGGFLSQTGEHVKQMAMGAADAVKHTFGMATEEEDKEHYPGSTTTTTATTRTTDPTHQTYQRK
Which binding [2] does the source give for B2 here?
The binding was “binds”.
